Measured values: patent US20190381086A1, “INHIBITION OF NEDDYLATION USING GLYCYL-tRNA SYNTHETASE INHIBITORS” (The Scripps Research Institute, priority 2015, published 2019)
Results are given in words; binding and its absence hold for the method and conditions named. In cells and extracts the contact can be indirect. Some binding calls cover weakened binding; strength is not graded here.

By UniProt entry, the sequences of proteins in these tests, tags left out. Residues count along the entry.
UniProt Q15843, residues 1-76: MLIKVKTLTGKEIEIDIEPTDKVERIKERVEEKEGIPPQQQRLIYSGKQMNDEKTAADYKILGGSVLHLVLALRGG

Biological target: T1, Ubc12
T1 sequence: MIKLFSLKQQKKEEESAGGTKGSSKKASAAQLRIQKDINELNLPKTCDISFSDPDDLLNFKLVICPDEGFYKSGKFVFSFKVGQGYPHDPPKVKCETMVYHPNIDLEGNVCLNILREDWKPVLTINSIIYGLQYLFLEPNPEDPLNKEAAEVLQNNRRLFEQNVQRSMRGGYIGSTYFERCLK
Assay: co-immunoprecipitation with anti-Myc from lysate of HEK293 cells transfected with Myc-NEDD8, blot anti-Ubc12; from a lysate, so the contact may be indirect or through conjugation

binding: binds
Substance: Myc-NEDD8 expressed in HEK293 cells (from UniProt Q15843 1-76)
